# Values quoted from earlier work, collected in US20110081293A1, “METHODS AND COMPOSITIONS RELATED TO CLOT-BINDING LIPID COMPOUNDS” (SANFORD-BURNHAM MEDICAL RESEARCH INSTITUTE, priority 2009, published 2011).
# Settings: PEGylated vitamin E alone; cited from earlier work
compound,measurement,value
CC(=O)O[C@H]1C(=O)[C@@]2(C)[C@H]([C@H](OC(=O)c3ccccc3)[C@]3(O)C[C@H](OC(=O)[C@H](O)[C@@H](NC(=O)c4ccccc4)c4ccccc4)C(C)=C1C3(C)C)[C@]1(OC(C)=O)CO[C@@H]1C[C@@H]2O [paclitaxel],solubilized concentration of hydrophobic drug,up to 2.5 mg/ml
